# Primary screen of a compound library

Sequences of proteins named here, by UniProt entry; tags and fusion partners are left off.
UniProt I6X8D2, whole entry: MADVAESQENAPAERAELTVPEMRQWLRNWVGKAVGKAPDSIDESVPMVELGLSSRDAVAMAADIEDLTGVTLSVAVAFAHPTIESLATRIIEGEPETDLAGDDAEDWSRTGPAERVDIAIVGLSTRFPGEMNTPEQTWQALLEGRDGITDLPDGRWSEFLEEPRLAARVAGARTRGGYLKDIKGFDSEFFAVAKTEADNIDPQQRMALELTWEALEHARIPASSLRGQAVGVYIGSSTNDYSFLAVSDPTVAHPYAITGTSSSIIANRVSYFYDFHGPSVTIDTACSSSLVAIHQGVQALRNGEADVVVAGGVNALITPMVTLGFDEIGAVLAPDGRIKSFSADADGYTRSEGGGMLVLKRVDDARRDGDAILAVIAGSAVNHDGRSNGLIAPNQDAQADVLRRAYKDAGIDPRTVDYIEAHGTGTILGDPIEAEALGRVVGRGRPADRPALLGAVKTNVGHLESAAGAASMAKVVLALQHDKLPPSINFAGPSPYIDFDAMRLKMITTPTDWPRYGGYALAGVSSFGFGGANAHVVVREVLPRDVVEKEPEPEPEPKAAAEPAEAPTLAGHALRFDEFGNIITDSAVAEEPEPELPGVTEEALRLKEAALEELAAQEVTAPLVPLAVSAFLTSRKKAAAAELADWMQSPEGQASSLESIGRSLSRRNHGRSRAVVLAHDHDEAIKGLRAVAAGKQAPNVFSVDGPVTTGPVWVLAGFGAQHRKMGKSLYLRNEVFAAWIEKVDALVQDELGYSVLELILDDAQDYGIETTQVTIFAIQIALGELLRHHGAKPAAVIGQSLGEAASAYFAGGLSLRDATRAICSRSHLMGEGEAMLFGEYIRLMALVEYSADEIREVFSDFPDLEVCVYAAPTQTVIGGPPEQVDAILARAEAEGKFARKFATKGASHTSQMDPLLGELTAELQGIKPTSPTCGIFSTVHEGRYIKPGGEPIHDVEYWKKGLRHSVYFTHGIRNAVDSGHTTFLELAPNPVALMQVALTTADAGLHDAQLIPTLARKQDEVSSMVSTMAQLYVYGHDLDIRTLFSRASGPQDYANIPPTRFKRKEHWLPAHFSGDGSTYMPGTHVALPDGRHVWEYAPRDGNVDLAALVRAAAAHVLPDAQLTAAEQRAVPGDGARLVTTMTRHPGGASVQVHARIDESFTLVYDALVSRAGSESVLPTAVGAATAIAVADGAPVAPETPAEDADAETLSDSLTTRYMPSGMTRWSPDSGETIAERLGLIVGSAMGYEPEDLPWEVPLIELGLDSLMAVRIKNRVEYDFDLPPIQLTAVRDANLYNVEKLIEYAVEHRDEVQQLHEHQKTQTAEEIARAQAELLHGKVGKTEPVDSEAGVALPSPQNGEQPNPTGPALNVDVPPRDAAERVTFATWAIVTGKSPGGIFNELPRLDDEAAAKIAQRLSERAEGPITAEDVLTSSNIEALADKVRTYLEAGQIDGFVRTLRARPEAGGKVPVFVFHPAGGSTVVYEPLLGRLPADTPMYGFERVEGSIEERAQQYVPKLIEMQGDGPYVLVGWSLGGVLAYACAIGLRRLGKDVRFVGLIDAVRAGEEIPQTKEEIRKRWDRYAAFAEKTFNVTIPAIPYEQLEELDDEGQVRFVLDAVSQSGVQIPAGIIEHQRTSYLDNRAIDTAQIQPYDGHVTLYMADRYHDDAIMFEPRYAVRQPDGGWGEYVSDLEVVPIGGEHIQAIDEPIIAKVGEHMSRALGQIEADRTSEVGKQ

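Polyketide synthase Pks13, Mycobacterium tuberculosis (UniProt I6X8D2). Enzyme assay of the thioesterase domain of polyketide synthase 13; the read-out is not stated. Tested at 30 µM. Higher reads as stronger inhibition (inferred from which compounds were picked for retests). Size under these conditions: about 67,000 compounds, about 300 of them at 50% or above in at least one test.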

The filed quantity is “Percent Effect” (%).
The record does not define 0% and 100%; most values in the screen are far below 50% and negative numbers occur (in some assays of this library far below -100).
This is an unselected part of the compounds tested.

c1cncc(OCCCNC2COc3ccccc3C2)c1 (stereo not shown) gave -16.95%.
CS(=O)(=O)N1CCCCC12CCCN(Cc1nccs1)C2 (stereo not shown) gave -14.5%.
COC(CNC(=O)NCc1c(C)cc(C)[nH]c1=O)c1ccccc1 (stereo not shown) gave -9.46%.
CCCS(=O)(=O)c1ccc(N2CCC(Cc3ccccc3)CC2)nn1 gave -4.04%.
Cc1cc(=O)n2ncnc2n1CC(O)c1ccccc1Cl (stereo not shown) gave -33.45%.
c1coc(CN2CCCC3(COCCN(Cc4c[nH]nn4)C3)C2)c1 (stereo not shown) gave -72.09%.
CCc1ncc2c(n1)CN(Cc1nc(-c3ccoc3)no1)CC2 gave 13.18%.
CC(C)N[C@@H]1CO[C@H](CNC(=O)c2cccs2)[C@H]1O gave 29.25%.
O=C(c1ccc(CN2CCCC2)cc1)N1CCCC(n2cccn2)C1 (stereo not shown) gave -18.87%.
COc1ccc(NC(=O)C2CCOC2)c(N2CCN(C(C)=O)CC2)n1 (stereo not shown) gave -2.63%.
CC(OCC1CC1)C(=O)N1CCCN(Cc2nccn2C)CC1 (stereo not shown) gave -3.539%.
COCCCN1CC2(CCN(C(=O)c3ccc(=O)n(C)c3)CC2)CC1=O gave -1.314%.
O=C(O)CCC(=O)N1CCC(c2noc3cc(F)ccc23)CC1 gave -2.578%.
OCC1(O)CCCN(Cc2noc(-c3ccccc3)n2)CC1 (stereo not shown) gave -36.36%.
CCn1nc(C)c(CNC(=O)C2COc3ccccc3C2)c1C (stereo not shown) gave -7.951%.
COCCNC(=O)CN(C)Cc1ccc(F)cc1Cl gave -17.59%.
O=C(O)c1cc(-c2cccs2)nc2c(Br)cnn12 gave 13.89%.
CCc1nc(C2CCCN2C(=O)c2cc3c(s2)CCC3)no1 (stereo not shown) gave 1.734%.
c1csc(CN2CCO[C@H]3[C@H](OCC4CCCC4)CC[C@@H]32)n1 gave -20.68%.
CC1c2ncc(COc3cccnc3)n2CCN1C(=O)C1=CCCCC1 (stereo not shown) gave -9.736%.
O=C(c1cccc(Oc2ccccc2)c1)N1CCCC(O)(CO)CC1 (stereo not shown) gave -3.683%.
Cc1ccccc1C1CCCN1Cc1ccc(S(=O)(=O)N(C)C)o1 (stereo not shown) gave 13.76%.
COC(=O)C(CNC(=O)Nc1nncs1)Cc1ccc(O)cc1 (stereo not shown) gave -34.53%.
Cc1nc(CSCc2ccc(OCC(F)(F)F)nc2)no1 gave -34.39%.
CC(C)c1nc(CN2CCCC2Cn2cncn2)no1 (stereo not shown) gave -17.3%.
Cc1cc(OCCC(=O)NCc2ccc(F)cc2)nnc1C gave -9.97%.
Cc1nc(N2CCC3(CCOC3)C2)c2cc[nH]c2n1 (stereo not shown) gave 15.23%.
O=C(O)[C@]12CN(CC3CCC3)C[C@H]1CN(c1cnccn1)C2 gave 2.116%.
Cc1nn(COc2cccc(F)c2)c(C)c1NC(=O)C1CC1 gave -7.727%.
Cc1nnc(N2CC[C@H]3C[C@H](C(=O)N(C)C)O[C@@H]3C2)s1 gave -13.12%.
CCn1ccnc1CNCC(c1ccc(C)s1)N1CCOCC1 (stereo not shown) gave -16.43%.
c1cnc(N2CCC(c3nccn3CC3CC3)CC2)nc1 gave -2.618%.
O=C(c1cccc(Cl)c1F)N1CCOC2(CNCCOC2)C1 (stereo not shown) gave -14.94%.
O=C(c1ccncc1)N1CCn2c(nnc2-c2ccccc2)C1 gave -34.88%.

Data taken from ChEMBL document CHEMBL3988442, “University of Dundee, Small-Polar-MMV Screening Library” (2021).